Reference: patent US20070141158A1, “Amphiphilic heparin derivative formed by coupling a heparin with a bile acid” (ETHYPHARM, priority 2003, published 2007)

Tested on: rat everted intestinal sac
Settings: vectorized by HEP30CHO (magnesium salt form) versus nifedipine kept in solution with DMSO; 30, 60 and 90 minutes, 37° C. (FIG. 7)

COC(=O)C1=C(C)NC(C)=C(C(=O)OC)C1c1ccccc1[N+](=O)[O-] [Nifedipine]
rate of absorption of nifedipine by the intestinal mucosa: markedly greater
